Test results published in the supplement of paper PMC10849652.
Some of the results follow.

Chains of the proteins cited; added tags and fusions are not shown. Lines headed by an entry give the natural chain unless they say otherwise; changes in a name come on top.
UniProt Q9P0S3: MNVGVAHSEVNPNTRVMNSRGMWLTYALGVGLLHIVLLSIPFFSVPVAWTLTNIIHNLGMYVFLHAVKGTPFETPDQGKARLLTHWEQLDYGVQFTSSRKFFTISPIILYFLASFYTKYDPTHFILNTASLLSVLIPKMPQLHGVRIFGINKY
UniProt Q8N573: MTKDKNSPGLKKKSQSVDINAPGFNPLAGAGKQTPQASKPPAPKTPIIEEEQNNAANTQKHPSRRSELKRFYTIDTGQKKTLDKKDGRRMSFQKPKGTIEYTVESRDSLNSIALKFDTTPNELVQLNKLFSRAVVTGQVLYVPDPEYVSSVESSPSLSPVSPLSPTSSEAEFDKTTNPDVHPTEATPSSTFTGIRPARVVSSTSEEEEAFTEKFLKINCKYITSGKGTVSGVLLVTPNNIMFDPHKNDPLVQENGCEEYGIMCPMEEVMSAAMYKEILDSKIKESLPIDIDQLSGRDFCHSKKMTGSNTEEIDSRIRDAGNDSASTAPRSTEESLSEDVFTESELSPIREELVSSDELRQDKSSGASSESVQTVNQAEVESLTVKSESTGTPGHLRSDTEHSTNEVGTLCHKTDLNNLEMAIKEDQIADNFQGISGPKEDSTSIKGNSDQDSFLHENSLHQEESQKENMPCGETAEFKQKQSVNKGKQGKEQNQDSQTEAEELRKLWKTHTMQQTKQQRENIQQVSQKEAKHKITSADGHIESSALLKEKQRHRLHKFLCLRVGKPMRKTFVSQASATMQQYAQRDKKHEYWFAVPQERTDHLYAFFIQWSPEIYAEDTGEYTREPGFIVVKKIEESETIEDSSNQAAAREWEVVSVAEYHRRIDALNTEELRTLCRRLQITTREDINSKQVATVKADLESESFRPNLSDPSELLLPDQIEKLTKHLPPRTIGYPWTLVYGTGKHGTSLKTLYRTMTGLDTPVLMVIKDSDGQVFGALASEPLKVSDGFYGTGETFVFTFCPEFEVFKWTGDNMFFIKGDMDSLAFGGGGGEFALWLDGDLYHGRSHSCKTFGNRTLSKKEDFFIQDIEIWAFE
UniProt Q6PK18: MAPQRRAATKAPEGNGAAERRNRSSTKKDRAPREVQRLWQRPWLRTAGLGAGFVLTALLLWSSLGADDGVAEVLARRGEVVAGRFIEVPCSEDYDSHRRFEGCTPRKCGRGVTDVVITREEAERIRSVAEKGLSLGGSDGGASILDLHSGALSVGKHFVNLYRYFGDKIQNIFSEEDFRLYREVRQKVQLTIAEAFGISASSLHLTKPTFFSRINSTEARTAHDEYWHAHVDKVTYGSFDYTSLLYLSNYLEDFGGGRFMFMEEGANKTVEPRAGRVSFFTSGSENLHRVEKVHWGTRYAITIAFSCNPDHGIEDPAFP
UniProt Q9H1P3, whole entry, looked up: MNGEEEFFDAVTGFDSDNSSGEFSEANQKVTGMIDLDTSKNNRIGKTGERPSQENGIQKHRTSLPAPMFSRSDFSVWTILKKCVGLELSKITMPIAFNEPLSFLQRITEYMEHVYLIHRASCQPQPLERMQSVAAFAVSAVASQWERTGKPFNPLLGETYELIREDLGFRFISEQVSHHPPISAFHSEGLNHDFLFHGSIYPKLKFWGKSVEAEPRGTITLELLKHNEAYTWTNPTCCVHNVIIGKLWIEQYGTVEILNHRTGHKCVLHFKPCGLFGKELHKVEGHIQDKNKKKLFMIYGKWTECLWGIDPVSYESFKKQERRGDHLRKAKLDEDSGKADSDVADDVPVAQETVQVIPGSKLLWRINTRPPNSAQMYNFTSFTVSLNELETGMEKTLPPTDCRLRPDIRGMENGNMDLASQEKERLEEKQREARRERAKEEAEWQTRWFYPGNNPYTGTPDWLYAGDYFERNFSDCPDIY
UniProt Q96D31, whole entry, looked up: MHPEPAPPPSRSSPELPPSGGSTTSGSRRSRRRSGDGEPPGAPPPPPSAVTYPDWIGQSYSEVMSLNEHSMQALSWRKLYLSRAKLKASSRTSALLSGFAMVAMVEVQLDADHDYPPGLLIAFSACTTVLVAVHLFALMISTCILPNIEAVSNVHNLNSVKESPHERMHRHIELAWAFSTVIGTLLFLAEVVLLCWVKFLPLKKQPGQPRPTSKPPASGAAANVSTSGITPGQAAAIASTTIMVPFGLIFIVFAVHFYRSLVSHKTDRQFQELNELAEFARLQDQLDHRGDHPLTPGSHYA
UniProt Q9BZF3: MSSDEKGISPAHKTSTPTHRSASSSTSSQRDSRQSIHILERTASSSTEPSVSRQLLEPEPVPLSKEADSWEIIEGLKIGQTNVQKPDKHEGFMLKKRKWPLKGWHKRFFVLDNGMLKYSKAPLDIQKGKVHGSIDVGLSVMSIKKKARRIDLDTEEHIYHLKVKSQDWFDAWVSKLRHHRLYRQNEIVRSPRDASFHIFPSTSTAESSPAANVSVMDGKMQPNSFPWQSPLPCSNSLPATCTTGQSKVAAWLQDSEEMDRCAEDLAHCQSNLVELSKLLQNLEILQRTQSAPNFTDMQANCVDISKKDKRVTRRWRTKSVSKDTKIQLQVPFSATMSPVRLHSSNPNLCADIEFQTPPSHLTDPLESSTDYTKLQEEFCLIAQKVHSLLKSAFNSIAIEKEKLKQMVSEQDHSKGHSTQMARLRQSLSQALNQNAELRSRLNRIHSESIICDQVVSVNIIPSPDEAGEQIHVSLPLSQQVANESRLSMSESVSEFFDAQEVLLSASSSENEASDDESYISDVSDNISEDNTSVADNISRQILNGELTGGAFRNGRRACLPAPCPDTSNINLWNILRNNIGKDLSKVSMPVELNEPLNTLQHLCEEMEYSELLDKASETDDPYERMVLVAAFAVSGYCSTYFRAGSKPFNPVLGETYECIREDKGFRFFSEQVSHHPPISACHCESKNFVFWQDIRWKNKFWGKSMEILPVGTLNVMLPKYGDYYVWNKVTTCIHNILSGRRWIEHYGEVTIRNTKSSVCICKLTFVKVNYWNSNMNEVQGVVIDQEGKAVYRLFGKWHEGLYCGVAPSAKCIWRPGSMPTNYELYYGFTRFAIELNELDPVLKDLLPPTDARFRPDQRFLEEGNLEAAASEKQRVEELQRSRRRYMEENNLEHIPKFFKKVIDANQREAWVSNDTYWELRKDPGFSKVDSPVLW
UniProt Q8WV22: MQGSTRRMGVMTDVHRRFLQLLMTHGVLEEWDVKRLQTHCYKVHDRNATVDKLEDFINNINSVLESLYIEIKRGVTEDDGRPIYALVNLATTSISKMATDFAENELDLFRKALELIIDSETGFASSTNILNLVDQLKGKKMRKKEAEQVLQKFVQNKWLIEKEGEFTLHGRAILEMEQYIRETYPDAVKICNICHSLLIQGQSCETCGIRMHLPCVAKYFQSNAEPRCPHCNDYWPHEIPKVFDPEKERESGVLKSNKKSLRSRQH
UniProt P0C025: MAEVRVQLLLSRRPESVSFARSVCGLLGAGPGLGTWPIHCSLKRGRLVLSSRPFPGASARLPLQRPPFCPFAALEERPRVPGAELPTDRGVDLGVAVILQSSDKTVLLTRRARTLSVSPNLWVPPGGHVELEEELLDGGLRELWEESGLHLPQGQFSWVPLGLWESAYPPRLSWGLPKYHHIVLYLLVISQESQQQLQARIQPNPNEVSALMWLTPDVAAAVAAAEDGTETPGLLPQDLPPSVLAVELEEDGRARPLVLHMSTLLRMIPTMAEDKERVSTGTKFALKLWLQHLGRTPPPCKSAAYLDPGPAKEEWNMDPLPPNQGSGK
UniProt Q9Y5N6: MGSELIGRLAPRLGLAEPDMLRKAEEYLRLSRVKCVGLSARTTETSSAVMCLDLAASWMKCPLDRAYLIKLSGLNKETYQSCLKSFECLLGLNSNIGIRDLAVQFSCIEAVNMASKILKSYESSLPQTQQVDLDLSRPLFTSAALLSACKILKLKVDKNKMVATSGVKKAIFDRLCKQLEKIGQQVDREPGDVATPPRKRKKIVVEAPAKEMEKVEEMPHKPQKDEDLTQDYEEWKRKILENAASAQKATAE

Key:
Assay in all cases: log2 fold change, soluble protein after heating vs DMSO (PISA); higher = thermal stabilisation; K562 cells, 10 uM, 30 min; active = over 0.2 and 3.5 SD of the protein, either way, in both replicates (recomputed)
[1] = compound: FC(F)(F)c1ccc(/C=C/c2nc(COc3ccc(CCCCn4ccnn4)cc3)co2)cc1 [mubritinib]
Summary of the method: (§1)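 K562 cells at 2×10^6 cells/mL were given 10 μM compound for 30 min. Aliquots then went through 3 min of heating across 48°C-58°C, were pooled, and were extracted in PBS with 0.5% NP-40 at 4°C, and the supernatant after 21,000xg for 90 min was quantified by TMTpro 16plex LC-MS/MS with channel sums equalised. Thermal stability relative to control samples, from duplicates, is given as log2 fold change.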

[2] = compound: NC(=O)Nc1cc(-c2cccc(F)c2)sc1C(=O)N[C@H]1CCCNC1
Summary of the method: as §1

[3] = compound: NC1(c2ccc(-c3nc4ccn5c(=O)[nH]nc5c4cc3-c3ccccc3)cc2)CCC1
Summary of the method: as §1

[4] = compound: Nc1ccccc1NC(=O)c1ccc(CNC(=O)OCc2cccnc2)cc1 [entinostat]
Summary of the method: as §1

[5] = compound: O=C(CCCCCCNC(=O)c1cnc(N(c2ccccc2)c2ccccc2Cl)nc1)NO [citarinostat]
Summary of the method: as §1

[6] = compound: O=C(O)c1ccc2c(c1)nc(Nc1cccc(Cl)c1)c1ccncc12 [silmitasertib]
Summary of the method: as §1

[7] = compound: O=C1NC(=O)C(c2cnc3ccccn23)=C1c1cn2c3c(cc(F)cc13)CN(C(=O)N1CCCCC1)CC2
Summary of the method: as §1

[8] = compound: c1cc(OCCN2CCCCC2)cc(-c2n[nH]c3ccc(-c4nnc[nH]4)cc23)c1
Summary of the method: as §1

[9] = compound: Cc1cccc(CC(=O)N2CCc3c2ccc(-c2cn(C)c4ncnc(N)c24)c3F)n1
Summary of the method: as §1

[10] = compound: Cc1cn(-c2cc(NC(=O)c3ccc(C)c(Nc4nccc(-c5cccnc5)n4)c3)cc(C(F)(F)F)c2)cn1 [nilotinib]
Summary of the method: as §1

[11] = compound: Cc1nc(Nc2n[nH]c3c2CN(C(=O)N[C@H](CN(C)C)c2ccccc2)C3(C)C)c2sccc2n1
Summary of the method: as §1

[12] = compound: Cc1nc(Nc2ncc(C(=O)Nc3c(C)cccc3Cl)s2)cc(N2CCN(CCO)CC2)n1 [dasatinib]
Summary of the method: as §1

[13] = compound: Cc1ncc(-c2ccnc(Nc3ccc(S(C)(=O)=O)cc3)n2)n1C(C)C
Summary of the method: as §1

[14] = compound: Cn1cc(-c2ccc3c(c2)CCN3C(=O)Cc2cccc(C(F)(F)F)c2)c2c(N)ncnc21
Summary of the method: as §1

[15] = compound: Cn1cc(-c2ccc3nnc(C(F)(F)c4ccc5ncccc5c4)n3n2)cn1
Summary of the method: as §1

[16] = compound: Cn1cncc1[C@@](N)(c1ccc(Cl)cc1)c1ccc2c(c1)c(-c1cccc(Cl)c1)cc(=O)n2C [tipifarnib]
Summary of the method: as §1

[17] = compound: NC(=O)c1cnc(N[C@@H]2CCCC[C@@H]2N)nc1Nc1cccc(-n2nccn2)c1
Summary of the method: as §1

[18] = compound: NCC(=O)Nc1ccc(-n2nc(C(F)(F)F)cc2-c2ccc3c(ccc4ccccc43)c2)cc1
Summary of the method: as §1

[19] = compound: O=C(CCCCCCC(=O)Nc1ccccc1)NO [vorinostat]
Summary of the method: as §1

[20] = compound: Cc1ccc(NC(=O)c2ccc(CN3CC[C@H](N(C)C)C3)c(C(F)(F)F)c2)cc1Nc1nccc(-c2cncnc2)n1 [bafetinib]
Summary of the method: as §1

Measured: log2 fold change

ORMDL1 (UniProt Q9P0S3)
inactive: [1] -0.043 | [2] -0.091 | [3] -0.065 | [4] 0.039 | [5] 0.113 | [6] 0.076 | [7] -0.009 | [8] -0.023

OXR1 isoform 2 (UniProt Q8N573)
inactive: [9] -0.009 | [10] -0.028 | [11] -0.002 | [12] 0 | [13] -0.094 | [14] 0.15 | [15] 0.099 | [16] -0.019 | [17] 0.054 | [18] -0.046 | [19] 0.01 | [5] 0.013 | [7] -0.096 | [8] -0.053

OGFOD3 (UniProt Q6PK18)
inactive: [20] 0.122 | [10] 0.196 | [11] 0.027 | [13] -0.025 | [15] -0.001 | [16] -0.026 | [1] 0.006 | [3] -0.099 | [6] -0.12

OSBPL2 (UniProt Q9H1P3)
inactive: [14] 0.37 | [16] -0.009 | [1] 0.465 | [3] -0.443 | [6] 0.148

ORAI1 (UniProt Q96D31)
inactive: [20] 0.133 | [10] 0.018 | [11] -0.086 | [13] 0.053 | [15] 0.004 | [16] 0.044 | [1] -0.251 | [3] 0.101 | [18] 0.202 | [5] 0.491 | [6] 0.11 | [7] -0.024 | [8] -0.2

OSBPL6 isoform 5 (UniProt Q9BZF3)
inactive: [10] 1.04 | [11] -0.045 | [13] 0.013 | [15] -0.006 | [16] -0.09 | [1] 0.047 | [2] 0.202 | [17] 0.563 | [3] 0.15 | [4] -0.155 | [5] -0.237 | [6] 0.305 | [7] 0.271 | [8] -0.345

NSMCE1 (UniProt Q8WV22)
inactive: [10] 0.478 | [11] 0.305 | [12] -0.001 | [13] -0.15 | [14] 0.023 | [15] -0.032 | [16] 0.047 | [1] -0.123 | [2] 0.091 | [17] 0.214 | [3] 0.058 | [18] 0.022 | [4] -0.052 | [5] -0.058 | [6] -0.068 | [7] -0.032 | [8] -0.048

NUDT17 (UniProt P0C025)
inactive: [20] -0.131 | [10] 0.017 | [11] 0.071 | [13] -0.011 | [14] 0.187 | [15] 0.041 | [1] -0.156 | [2] 0.168 | [17] 0.072 | [3] -0.004 | [18] 0.165 | [4] 0.198 | [6] 0.041 | [7] -0.217

ORC6 (UniProt Q9Y5N6)
inactive: [10] -0.136 | [11] -0.006 | [13] 0.127 | [15] -0.071 | [16] 0.189 | [2] 0.06 | [4] 0.05 | [5] 0.062 | [7] 0.031 | [8] -0.135

PABPC1 (UniProt H0YAR2)
inactive: [15] 0.061 | [1] 0.26 | [2] -0.07 | [3] 0.157 | [4] 0.051 | [6] 0.229
